Data taken from PMC7659708.

Target: microtubules assembled from HeLa tubulin (human (endogenous in HeLa))
Assay: TIRF microscopy of a fluorescent binder on immobilized microtubules; Taxol-stabilized labeled microtubules immobilized on a kinesin-3 (Kif1a, 1-357) motor bed without ATP, incubated with 5 µM A1aY1-GFP; GFP intensity on the filaments measured; both purified

binding: binds
B1: A1aY1-GFP (designed binder)
chain: MATVKFKYKGEEKQVDISKILSVGRYGKLIHFLYDLGGGKAGMGMVSEKDAPKELLQMLEKQKK

Results are given in words; binding and its absence hold for the method and conditions named. Binding calls can cover weak binding; strength is not graded here. Sequences can lack the tags named with a protein.
